{"source": "PubChem BioAssay AID192", "about": "(DTP/NCI, 2004)", "system": "BDF1 mice, B16 melanoma ip, median survival T/C", "test": "NCI In Vivo Anticancer Drug Screen. Data for tumor model B16 Melanoma (intraperitoneal) in B6D2F1 (BDF1) mice", "settings": "T/C endpoint: median survival time, higher T/C = longer survival", "in_short": "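Read-out: survival or tumor size, given as treated/control ratio. Controls received vehicle only; animals bore transplantable tumors.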", "key": {"[1]": {"settings": "dose: 25.0 mg/kg/injection, schedule: Q01DX009 (ip), vehicle: saline with Tween-80"}, "[2]": {"settings": "dose: 200.0 mg/kg/injection, schedule: Q01DX009 (ip), vehicle: saline with Tween-80"}, "[3]": {"settings": "dose: 200.0 mg/kg/injection, schedule: Q01DX009 (ip), vehicle: saline"}, "[4]": {"settings": "dose: 100.0 mg/kg/injection, schedule: Q01DX009 (ip), vehicle: saline"}, "[5]": {"settings": "dose: 12.5 mg/kg/injection, schedule: Q01DX009 (ip), vehicle: Klucel (hydroxypropylcellulose) (HPC)"}}, "note": "The list shows only some results of the screen, not a fair sample: it gathers tests that were run many times, whatever their T/C, doses with no T/C, and many T/C values between a quarter and a half above the control. Other doses and runs of a compound stand elsewhere. T/C: endpoint of the treated group in % of that of the vehicle group. Some doses have a count of surviving animals in place of a T/C: the source holds a T/C of zero for them, seemingly a mark for toxic or unscored doses. Some doses without a T/C left all or most animals alive at the check, yet need not have been tolerated: the source hardly ever lists a survival T/C far under the control, and the zero likely stands for such cases as well. Survivors were counted at the toxicity check, usually on the fifth day, unless a day is given; later deaths do not show. Schedule codes are those of the source, read here as Q, the interval in days (D) or hours (H), X, the number of doses. Where survival is the endpoint, the PubChem record calls one and a half times the control and up active, and a quarter to a half above the control has no call in these data; cut-offs in other NCI protocols can differ."}
{"smiles": "CN(C)CCCN1c2ccc(O)cc2Sc2ccc(Cl)cc21", "values": [{"measurement": "survivor count", "setting": "dose: 6.2 mg/kg/injection, schedule: Q01DX009 (ip), vehicle: other", "value": "10 of 10"}, {"measurement": "survivor count", "setting": "dose: 12.5 mg/kg/injection, schedule: Q01DX009 (ip), vehicle: other", "value": "10 of 10"}, {"measurement": "survivor count", "setting": "dose: 25.0 mg/kg/injection, schedule: Q01DX009 (ip), vehicle: other", "value": "7 of 10"}, {"measurement": "T/C", "setting": "[1]", "value": "126 % of control"}, {"measurement": "survivor count", "setting": "dose: 50.0 mg/kg/injection, schedule: Q01DX009 (ip), vehicle: other", "value": "6 of 10"}, {"measurement": "survivor count", "setting": "dose: 100.0 mg/kg/injection, schedule: Q01DX009 (ip), vehicle: other", "value": "0 of 10"}]}
{"smiles": "CCS(=O)(=O)OCCCl", "values": [{"measurement": "survivor count", "setting": "[2]", "value": "0 of 10"}]}
{"smiles": "C(COCC1CO1)OCC1CO1", "note": "(centres undefined)", "values": [{"measurement": "survivor count", "setting": "[3]", "value": "2 of 10"}]}
{"smiles": "NC(=O)C(O)C(O)C(O)C(O)C(N)=O", "note": "(centres undefined)", "values": [{"measurement": "T/C", "setting": "dose: 50.0 mg/kg/injection, schedule: Q01DX009 (ip), vehicle: saline", "value": "126 % of control"}]}
{"smiles": "CCOC(OCC)C(=O)NNC(C)C", "values": [{"measurement": "T/C", "setting": "dose: 25.0 mg/kg/injection, schedule: Q01DX009 (ip), vehicle: saline", "value": "135 % of control"}, {"measurement": "survivor count", "setting": "[4]", "value": "10 of 10"}]}
{"smiles": "CN(C)CCOc1ccc2c(c1)C/C(=C/c1ncc([N+](=O)[O-])n1C)C2=O", "values": [{"measurement": "survivor count", "setting": "[2]", "value": "10 of 10"}]}
{"smiles": "CCOC(=O)CCCN(c1sc(C)c(C)c1C(=O)OCC)S(=O)(=O)c1ccc(C)cc1", "values": [{"measurement": "T/C", "setting": "dose: 25.0 mg/kg/injection, schedule: Q04DX003 (ip), vehicle: saline with Tween-80", "value": "130 % of control"}]}
{"smiles": "CC(=O)O[C@H]1C(=O)O[C@@H]2C[C@H]3C(C)=CC(=O)[C@@H](O)[C@]3(C)[C@H]3[C@@]4(O)OC[C@]32[C@@H]1[C@@H](C)[C@H]4O", "values": [{"measurement": "T/C", "setting": "dose: 3.0 mg/kg/injection, schedule: Q01DX009 (ip), vehicle: Klucel (hydroxypropylcellulose) (HPC)", "value": "127 % of control"}, {"measurement": "T/C", "setting": "dose: 6.0 mg/kg/injection, schedule: Q01DX009 (ip), vehicle: Klucel (hydroxypropylcellulose) (HPC)", "value": "131 % of control"}, {"measurement": "T/C", "setting": "dose: 12.0 mg/kg/injection, schedule: Q01DX009 (ip), vehicle: Klucel (hydroxypropylcellulose) (HPC)", "value": "128 % of control"}, {"measurement": "T/C", "setting": "dose: 12.0 mg/kg/injection, schedule: Q01DX009 (ip), vehicle: saline", "value": "125 % of control"}, {"measurement": "survivor count", "setting": "[1]", "value": "2 of 10"}, {"measurement": "survivor count", "setting": "dose: 50.0 mg/kg/injection, schedule: Q01DX009 (ip), vehicle: saline with Tween-80", "value": "0 of 10"}]}
{"smiles": "O.O.O=c1[nH]cc(CO)c(=O)[nH]1.[NH2-].[NH2-].[Pt+2]", "values": [{"measurement": "T/C", "setting": "[5]", "value": "136 % of control"}]}
{"smiles": "CCOC(=O)c1ccc(OC(=O)Nc2ccc(Cl)cc2)cc1", "values": [{"measurement": "survivor count", "setting": "dose: 400.0 mg/kg/injection, schedule: Q01DX009 (ip), vehicle: saline with Tween-80", "value": "10 of 10"}]}
{"smiles": "C#CCN(C)Cc1ccccc1", "values": [{"measurement": "survivor count", "setting": "[4]", "value": "10 of 10"}, {"measurement": "survivor count", "setting": "[3]", "value": "9 of 10"}]}
{"smiles": "NC(=S)c1cn(C2OC(CO)C(O)C2O)c2ncnc(N)c12", "note": "(centres undefined)", "values": [{"measurement": "survivor count", "setting": "dose: 10.0 mg/kg/injection, schedule: Q01DX009 (ip), vehicle: saline", "value": "6 of 6"}, {"measurement": "survivor count", "setting": "dose: 20.0 mg/kg/injection, schedule: Q01DX009 (ip), vehicle: saline", "value": "0 of 6"}]}
{"smiles": "Cn1c(=O)c2[nH]c(Cc3ccc4c(c3)OCO4)nc2n(C)c1=O", "values": [{"measurement": "survivor count", "setting": "dose: 1.56 mg/kg/injection, schedule: Q01DX009 (ip), vehicle: Klucel (hydroxypropylcellulose) (HPC)", "value": "10 of 10"}, {"measurement": "survivor count", "setting": "dose: 3.12 mg/kg/injection, schedule: Q01DX009 (ip), vehicle: Klucel (hydroxypropylcellulose) (HPC)", "value": "10 of 10"}, {"measurement": "survivor count", "setting": "dose: 6.25 mg/kg/injection, schedule: Q01DX009 (ip), vehicle: Klucel (hydroxypropylcellulose) (HPC)", "value": "10 of 10"}, {"measurement": "survivor count", "setting": "[5]", "value": "10 of 10"}, {"measurement": "survivor count", "setting": "dose: 25.0 mg/kg/injection, schedule: Q01DX009 (ip), vehicle: Klucel (hydroxypropylcellulose) (HPC)", "value": "8 of 10"}, {"measurement": "survivor count", "setting": "dose: 50.0 mg/kg/injection, schedule: Q01DX009 (ip), vehicle: Klucel (hydroxypropylcellulose) (HPC)", "value": "10 of 10"}, {"measurement": "survivor count", "setting": "dose: 100.0 mg/kg/injection, schedule: Q01DX009 (ip), vehicle: Klucel (hydroxypropylcellulose) (HPC)", "value": "10 of 10"}, {"measurement": "survivor count", "setting": "dose: 200.0 mg/kg/injection, schedule: Q01DX009 (ip), vehicle: Klucel (hydroxypropylcellulose) (HPC)", "value": "7 of 10"}, {"measurement": "survivor count", "setting": "dose: 400.0 mg/kg/injection, schedule: Q01DX009 (ip), vehicle: Klucel (hydroxypropylcellulose) (HPC)", "value": "5 of 10"}]}
{"smiles": "C=C1C(=O)O[C@@H]2[C@H](O)[C@@H](C)[C@@H]3C=CC(=O)[C@@]3(C)[C@H](OC(=O)C=C(C)C)[C@H]12", "values": [{"measurement": "survivor count", "setting": "dose: 12.5 mg/kg/injection, schedule: Q01DX009 (ip), vehicle: saline", "value": "6 of 10"}]}
{"smiles": "CC1CN(CCC#N)CC(C)O1", "note": "(centres undefined)", "values": [{"measurement": "survivor count", "setting": "dose: 400.0 mg/kg/injection, schedule: Q01DX009 (ip), vehicle: saline", "value": "10 of 10"}]}
{"smiles": "COCCNCCN1CCN(CCCN2c3ccccc3Sc3ccc(C(F)(F)F)cc32)CC1", "values": [{"measurement": "survivor count", "setting": "dose: 45.0 mg/kg/injection, schedule: Q01DX009 (ip), vehicle: saline", "value": "7 of 10"}, {"measurement": "survivor count", "setting": "dose: 70.0 mg/kg/injection, schedule: Q01DX009 (ip), vehicle: saline", "value": "1 of 10"}, {"measurement": "survivor count", "setting": "dose: 105.0 mg/kg/injection, schedule: Q01DX009 (ip), vehicle: saline", "value": "0 of 10"}]}
